Reference: article doi:10.1101/2022.09.30.510409
Where two headings read alike, the source gives them in different places. These are yes or no findings as the source states them, for the method shown. Binding seen in cells or lysates may run through a third protein. Some entries that bind do so weakly or less than the wild type. Values belong to the molecule of their own block, whether it stands above or below them.

Protein sequences, listed by entry. Tags and fused reporters are not part of them. Lines headed by an entry give the natural chain unless they say otherwise; changes in a name come on top. Residues count along the entry.
UniProt O94955: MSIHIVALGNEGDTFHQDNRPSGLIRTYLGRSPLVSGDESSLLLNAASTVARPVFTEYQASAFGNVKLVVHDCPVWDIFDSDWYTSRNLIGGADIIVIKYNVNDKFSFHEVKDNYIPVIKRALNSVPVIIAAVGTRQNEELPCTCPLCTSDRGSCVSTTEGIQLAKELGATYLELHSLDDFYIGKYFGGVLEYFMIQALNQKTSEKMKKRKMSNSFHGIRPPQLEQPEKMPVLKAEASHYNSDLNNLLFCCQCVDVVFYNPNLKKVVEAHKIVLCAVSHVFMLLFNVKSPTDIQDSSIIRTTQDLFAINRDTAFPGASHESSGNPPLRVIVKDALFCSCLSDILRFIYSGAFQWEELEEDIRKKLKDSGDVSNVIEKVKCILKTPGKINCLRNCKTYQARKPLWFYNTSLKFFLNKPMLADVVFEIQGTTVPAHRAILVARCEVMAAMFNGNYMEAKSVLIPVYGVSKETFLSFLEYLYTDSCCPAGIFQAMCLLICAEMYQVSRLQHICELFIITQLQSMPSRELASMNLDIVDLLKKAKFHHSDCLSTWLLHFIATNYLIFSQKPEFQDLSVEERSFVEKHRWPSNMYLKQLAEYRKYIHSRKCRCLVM
UniProt A0JNW5: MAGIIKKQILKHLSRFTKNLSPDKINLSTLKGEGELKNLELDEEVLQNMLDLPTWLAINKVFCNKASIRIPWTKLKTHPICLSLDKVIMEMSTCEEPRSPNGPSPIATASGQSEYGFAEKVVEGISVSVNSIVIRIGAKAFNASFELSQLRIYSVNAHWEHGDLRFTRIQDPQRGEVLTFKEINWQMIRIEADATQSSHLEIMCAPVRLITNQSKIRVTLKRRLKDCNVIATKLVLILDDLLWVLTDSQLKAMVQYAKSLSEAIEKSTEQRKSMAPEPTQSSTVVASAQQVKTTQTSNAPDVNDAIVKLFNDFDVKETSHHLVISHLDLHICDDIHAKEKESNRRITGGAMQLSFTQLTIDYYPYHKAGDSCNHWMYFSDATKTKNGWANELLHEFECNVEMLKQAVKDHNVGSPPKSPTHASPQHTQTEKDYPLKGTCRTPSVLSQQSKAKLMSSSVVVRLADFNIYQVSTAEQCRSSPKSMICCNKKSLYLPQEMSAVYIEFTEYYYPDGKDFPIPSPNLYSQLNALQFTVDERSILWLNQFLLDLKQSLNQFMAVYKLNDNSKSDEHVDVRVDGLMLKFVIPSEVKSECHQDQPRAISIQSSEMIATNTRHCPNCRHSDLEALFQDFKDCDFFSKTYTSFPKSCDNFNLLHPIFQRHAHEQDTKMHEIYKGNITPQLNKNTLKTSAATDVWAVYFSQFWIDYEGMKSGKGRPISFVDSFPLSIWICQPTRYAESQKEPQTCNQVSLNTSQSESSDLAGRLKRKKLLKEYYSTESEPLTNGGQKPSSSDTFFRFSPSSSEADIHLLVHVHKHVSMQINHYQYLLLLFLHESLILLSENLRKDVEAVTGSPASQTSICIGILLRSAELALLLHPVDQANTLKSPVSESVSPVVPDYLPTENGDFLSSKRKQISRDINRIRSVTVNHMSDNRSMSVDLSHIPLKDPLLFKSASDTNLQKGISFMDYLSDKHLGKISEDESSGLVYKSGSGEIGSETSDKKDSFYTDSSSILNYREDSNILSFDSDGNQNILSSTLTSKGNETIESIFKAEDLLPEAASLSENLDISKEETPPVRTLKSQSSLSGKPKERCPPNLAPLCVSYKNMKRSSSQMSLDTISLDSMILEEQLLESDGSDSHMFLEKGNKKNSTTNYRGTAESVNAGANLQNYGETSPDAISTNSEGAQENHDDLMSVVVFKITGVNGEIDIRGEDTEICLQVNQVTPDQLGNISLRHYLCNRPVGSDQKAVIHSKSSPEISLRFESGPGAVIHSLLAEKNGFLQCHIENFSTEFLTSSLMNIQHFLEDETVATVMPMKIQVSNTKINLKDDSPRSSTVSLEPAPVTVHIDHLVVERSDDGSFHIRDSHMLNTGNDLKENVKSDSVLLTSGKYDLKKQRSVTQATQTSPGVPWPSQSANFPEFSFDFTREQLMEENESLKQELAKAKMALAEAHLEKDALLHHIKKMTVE
GFP-SHIP164-CT: residues 890-1464 of A0JNW5
UniProt Q4G0F5: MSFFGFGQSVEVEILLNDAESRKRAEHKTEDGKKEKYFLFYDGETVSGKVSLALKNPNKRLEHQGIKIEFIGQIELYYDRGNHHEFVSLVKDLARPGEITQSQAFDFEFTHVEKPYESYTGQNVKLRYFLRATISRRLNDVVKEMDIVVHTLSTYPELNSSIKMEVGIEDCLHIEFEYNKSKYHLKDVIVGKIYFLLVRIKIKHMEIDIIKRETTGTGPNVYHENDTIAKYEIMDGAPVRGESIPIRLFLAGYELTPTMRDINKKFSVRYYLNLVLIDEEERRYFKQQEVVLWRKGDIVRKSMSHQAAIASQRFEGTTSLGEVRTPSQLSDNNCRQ

Assays:
Test in all cases: co-IP
[1] = molecular target: RhoBTB3 (UniProt O94955)
[2] = molecular target: RhoBTB3-1-399 (UniProt O94955)
[3] = molecular target: SHIP164-1-104 (RhoBTB3-interacting domain, RBID) (UniProt A0JNW5)
[4] = molecular target: GFP tagged SHIP164 (Syntaxin 6-interacting protein with 164 kDa) (UniProt A0JNW5)
[5] = molecular target: GFP-SHIP164-CT (UniProt A0JNW5)
[6] = molecular target: RhoBTB3 (UniProt O94955); remark: listed apart in the source
[7] = molecular target: GFP tagged SHIP164 (Syntaxin 6-interacting protein with 164 kDa) (UniProt A0JNW5); remark: listed apart in the source

- binding [6]: binds
B1: CHPT1-Halo (enzyme, UniProt Q8WUD6 1-406)
chain: MAAGAGAGSAPRWLRALSEPLSAAQLRRLEEHRYSAAGVSLLEPPLQLYWTWLLQWIPLWMAPNSITLLGLAVNVVTTLVLISYCPTATEEAPYWTYLLCALGLFIYQSLDAIDGKQARRTNSCSPLGELFDHGCDSLSTVFMAVGASIAARLGTYPDWFFFCSFIGMFVFYCAHWQTYVSGMLRFGKVDVTEIQIALVIVFVLSAFGGATMWDYTIPILEIKLKILPVLGFLGGVIFSCSNYFHVILHGGVGKNGSTIAGTSVLSPGLHIGLIIILAIMIYKKSATDVFEKHPCLYILMFGCVFAKVSQKLVVAHMTKSELYLQDTVFLGPGLLFLDQYFNNFIDEYVVLWMAMVISSFDMVIYFSALCLQISRHLHLNIFKTACHQAPEQVQVLSSKSHQNNMD

- binding [6]: binds
- binding [7]: binds
B2: SPTLC3-Halo (enzyme, UniProt Q9NUV7 1-552)
chain: MANPGGGAVCNGKLHNHKKQSNGSQSRNCTKNGIVKEAQQNGKPHFYDKLIVESFEEAPLHVMVFTYMGYGIGTLFGYLRDFLRNWGIEKCNAAVERKEQKDFVPLYQDFENFYTRNLYMRIRDNWNRPICSAPGPLFDLMERVSDDYNWTFRFTGRVIKDVINMGSYNFLGLAAKYDESMRTIKDVLEVYGTGVASTRHEMGTLDKHKELEDLVAKFLNVEAAMVFGMGFATNSMNIPALVGKGCLILSDELNHTSLVLGARLSGATIRIFKHNNTQSLEKLLRDAVIYGQPRTRRAWKKILILVEGVYSMEGSIVHLPQIIALKKKYKAYLYIDEAHSIGAVGPTGRGVTEFFGLDPHEVDVLMGTFTKSFGASGGYIAGRKDLVDYLRVHSHSAVYASSMSPPIAEQIIRSLKLIMGLDGTTQGLQRVQQLAKNTRYFRQRLQEMGFIIYGNENASVVPLLLYMPGKVAAFARHMLEKKIGVVVVGFPATPLAEARARFCVSAAHTREMLDTVLEALDEMGDLLQLKYSRHKKSARPELYDETSFELED

- binding [6]: binds
B3: SMS1-Halo (enzyme, UniProt Q86VZ5 1-413)
chain: MKEVVYWSPKKVADWLLENAMPEYCEPLEHFTGQDLINLTQEDFKKPPLCRVSSDNGQRLLDMIETLKMEHHLEAHKNGHANGHLNIGVDIPTPDGSFSIKIKPNGMPNGYRKEMIKIPMPELERSQYPMEWGKTFLAFLYALSCFVLTTVMISVVHERVPPKEVQPPLPDTFFDHFNRVQWAFSICEINGMILVGLWLIQWLLLKYKSIISRRFFCIVGTLYLYRCITMYVTTLPVPGMHFNCSPKLFGDWEAQLRRIMKLIAGGGLSITGSHNMCGDYLYSGHTVMLTLTYLFIKEYSPRRLWWYHWICWLLSVVGIFCILLAHDHYTVDVVVAYYITTRLFWWYHTMANQQVLKEASQMNLLARVWWYRPFQYFEKNVQGIVPRSYHWPFPWPVVHLSRQVKYSRLVNDT

- binding [6]: binds
B4: SPTLC3-1-173-Halo (domain or fragment, UniProt Q9NUV7 1-173)
chain: MANPGGGAVCNGKLHNHKKQSNGSQSRNCTKNGIVKEAQQNGKPHFYDKLIVESFEEAPLHVMVFTYMGYGIGTLFGYLRDFLRNWGIEKCNAAVERKEQKDFVPLYQDFENFYTRNLYMRIRDNWNRPICSAPGPLFDLMERVSDDYNWTFRFTGRVIKDVINMGSYNFLGL

- binding [6]: binds
B6: CerS2-Halo (enzyme, UniProt Q96G23 1-380)
chain: MLQTLYDYFWWERLWLPVNLTWADLEDRDGRVYAKASDLYITLPLALLFLIVRYFFELYVATPLAALLNIKEKTRLRAPPNATLEHFYLTSGKQPKQVEVELLSRQSGLSGRQVERWFRRRRNQDRPSLLKKFREASWRFTFYLIAFIAGMAVIVDKPWFYDMKKVWEGYPIQSTIPSQYWYYMIELSFYWSLLFSIASDVKRKDFKEQIIHHVATIILISFSWFANYIRAGTLIMALHDSSDYLLESAKMFNYAGWKNTCNNIFIVFAIVFIITRLVILPFWILHCTLVYPLELYPAFFGYYFFNSMMGVLQLLHIFWAYLILRMAHKFITGKLVEDERSDREETESSEGEEAAAGGGAKSRPLANGHPILNNNHRKND

- binding [6]: binds
B7: PEMT-Halo (enzyme, UniProt Q9UBM1 1-199)
chain: MTRLLGYVDPLDPSFVAAVITITFNPLYWNVVARWEHKTRKLSRAFGSPYLACYSLSVTILLLNFLRSHCFTQAMLSQPRMESLDTPAAYSLGLALLGLGVVLVLSSFFALGFAGTFLGDYFGILKEARVTVFPFNILDNPMYWGSTANYLGWAIMHASPTGLLLTVLVALTYIVALLYEEPFTAEIYRQKASGSHKRS

Continued, molecule first:

Molecule: Halo-RhoBTB3-400-612 (from UniProt O94955 400-611) (domain or fragment)
- binding [1]: binds
- binding [2]: binds

Molecule: Halo-RhoBTB3-N138D (from UniProt O94955 1-611)
- binding [3]: binds

Molecule: RhoBTB3 (from UniProt O94955 1-611)
- binding [1]: binds
- binding [4]: binds

Molecule: Halo-RhoBTB3-A498T (from UniProt O94955 1-611)
- binding [3]: binds

Molecule: Halo-RhoBTB3-I533K (from UniProt O94955 1-611)
- binding [3]: binds

Molecule: Halo-Vps26A (from UniProt O75436 1-327)
- binding [5]: no binding

Molecule: SHIP164-1-104 (RhoBTB3-interacting domain, RBID) (from UniProt A0JNW5 1-104) (domain or fragment)
- binding [3]: binds
- binding [4]: binds

Molecule: RhoBTB3-1-399 (from UniProt O94955 1-399) (domain or fragment)
- binding [1]: binds
- binding [2]: binds

Molecule: Halo-Vps26B (from UniProt Q4G0F5 1-336)
- binding [5]: binds

B5: SPTLC3-174-427-Halo (domain or fragment, UniProt Q9NUV7 174-427)
chain: AAKYDESMRTIKDVLEVYGTGVASTRHEMGTLDKHKELEDLVAKFLNVEAAMVFGMGFATNSMNIPALVGKGCLILSDELNHTSLVLGARLSGATIRIFKHNNTQSLEKLLRDAVIYGQPRTRRAWKKILILVEGVYSMEGSIVHLPQIIALKKKYKAYLYIDEAHSIGAVGPTGRGVTEFFGLDPHEVDVLMGTFTKSFGASGGYIAGRKDLVDYLRVHSHSAVYASSMSPPIAEQIIRSLKLIMGLDGTTQG
- binding [6]: binds
